Patent US6063789A, “Aminoisoquinolines and aminotheinopyridine derivatives and their use as anti-inflammatory agents” (priority 1996, dated 2000)
Where a name gives a salt, the structure may show the parent alone. Some of these results come from one statement about several compounds together.

Molecular target: T1, inducible isoform of the enzyme nitric oxide synthase (NOS) (Mus musculus, UniProt P29477)
T1 construct: Nitric oxide synthase is produced by cells in response to interferon-g (IFNg) and lipopolysaccharide (LPS); endogenous in cells; host or cells: J774A-1 murine macrophage cell line, induced with LPS and IFN-gamma; crude cell lysate
Assay: nitric oxide synthetase activity screen (conversion of 3H-L-arginine to 3H-L-citrulline by lysate of induced J774A-1 macrophages)
Format: biochemical
Conditions: read-out: IC50 (the concentration of drug substance which gives 50% enzyme inhibition in the assay); lysate of LPS/IFNg-induced murine macrophage J774A-1 cells; 1 hour at room temperature

## NC1=NC(c2cccnc2)Cc2ccccc21 (stereo not shown) [Example 27, 1-Amino-3-(3-pyridyl)-3,4-dihydroisoquinoline hydrochloride]
  IC50: < 25 µM
